Source: the supplement of paper PMC3334620
The full ranking holds about 33,000 sequences; the median of “E-score (-0.5 to 0.5)” is about -0.0034, and the highest 2% start at about 0.25. Some of the results follow.

Each sequence was assayed against T1, Yap3 (UniProt P38749) (assay: PBM E-score (8-mer binding enrichment) (E-score (-0.5 to 0.5)); higher = stronger / more preferred TF binding). Conditions: protein concentration: 100 nM; construct: GST-full length.
T1 sequence: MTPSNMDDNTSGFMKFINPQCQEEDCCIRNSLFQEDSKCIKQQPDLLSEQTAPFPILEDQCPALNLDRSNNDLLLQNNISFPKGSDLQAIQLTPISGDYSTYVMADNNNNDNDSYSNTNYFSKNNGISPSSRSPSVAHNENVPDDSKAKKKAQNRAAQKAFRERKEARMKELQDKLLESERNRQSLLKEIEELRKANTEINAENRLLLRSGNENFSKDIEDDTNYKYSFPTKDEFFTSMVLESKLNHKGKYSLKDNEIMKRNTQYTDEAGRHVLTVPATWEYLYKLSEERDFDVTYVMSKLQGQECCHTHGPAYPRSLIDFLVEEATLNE
In short: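 Full-length yeast transcription factors or their DNA-binding domains, GST-tagged and expressed with PURExpress, were applied at about 100-200 nM to universal all-10-mer Agilent arrays. These arrays had been made double-stranded by primer extension on fresh or once-stripped slides. Detection used fluorescent anti-GST, normalisation used masliner, and E-scores for ungapped eight-base words pooled with reverse complements came from the Universal PBM Analysis Suite.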

Row | Sequence | PBM E-score
1 | AGCTTTTG | 0.103
2 | TCGTCGAA | 0.0355
3 | CTGCTCCA | -0.0981
4 | ATGTCATA | 0.129
5 | GCCACCAA | 0.0305
6 | CACACCAA | 0.148
7 | CGAGCGCG | -0.0148
8 | ACTCAGGG | -0.186
9 | AGTACAAC | 0.0259
10 | CACTAGGG | -0.194
11 | GGACACAC | -0.135
12 | AAGTATAG | -0.00453
13 | CAATGCGG | 0.0466
14 | CCTAGTTC | 0.0518
15 | CCATGACC | -0.0644
16 | AGAGCGTG | -0.128
17 | AGCCGCGC | 0.0348
18 | AGATGCCA | -0.107
19 | CCTTCCAG | -0.131
20 | GGCCCGCA | -0.18
21 | AATGAAGA | 0.209
22 | CACAAGGG | -0.159

Single entries from the list.
GGACACAC – PBM E-score: -0.135
CGAGCGCG – PBM E-score: -0.0148
TCGTCGAA – PBM E-score: 0.0355
AGAGCGTG – PBM E-score: -0.128
CCTAGTTC – PBM E-score: 0.0518
AGCTTTTG – PBM E-score: 0.103

An excerpt of these results, with tabs:
Row	Sequence	PBM E-score
3	CTGCTCCA	-0.0981
5	GCCACCAA	0.0305

The list continues.

Row | Sequence | PBM E-score
23 | AGGTGGCC | -0.23
24 | AGTGGGAC | -0.157
25 | ATAAGTAG | 0.0145
26 | ACACAGGT | -0.0434
27 | CTTATCTA | 0.198
28 | ATGCGAAA | 0.13
29 | AATTACGA | 0.33
30 | CCTTGACG | -0.198
31 | GAGTCTTA | -0.139
32 | GGTCTCCA | -0.0615
33 | AGAGAAAG | 0.0709
34 | GCTGAAGA | -0.0428
35 | AACAGCTG | 0.0716
36 | AACTGCAC | 0.0789
37 | TCCCGTAA | 0.0557
38 | CGACGCAG | -0.0783
39 | ATTTGCTC | 0.0509
40 | AGATTGTG | 0.00805
41 | CAATCCGG | 0.0195
42 | ATTGCTCA | -0.00161
43 | CAGCTACC | -0.0788
44 | AGTACACA | 0.201

Row | Sequence | PBM E-score
45 | GCTTTCGA | -0.239
46 | CACCTAAC | -0.07
47 | CTGGTTTA | -0.0783
48 | TCTCGACA | -0.0253
49 | ATTGTTTC | 0.164
50 | CCCGAGGA | -0.113
51 | ATGTCAGG | -0.0733
52 | CAACTGTA | 0.1
53 | CCACTTCG | -0.0637
54 | CGTTCCGC | 0.015
55 | CAAACTAC | 0.0901
56 | AGCTGCCA | -0.023
57 | GCTCCCAC | -0.161
58 | ACATAGAA | 0.199
59 | ATTTTCAA | 0.0451
60 | CGCAACAG | -0.095
61 | CCCACTTA | 0.177
62 | CCAGATCG | -0.0854
63 | ATACCTCA | 0.082
64 | ATTACAAC | 0.11
65 | TAAAGGTA | 0.0853
66 | CTTTGATC | -0.0556

Row | Sequence | PBM E-score
67 | CACTAAAG | 0.0782
68 | AAGACAAA | 0.176
69 | CAGCGGAC | -0.0637
70 | ACTTCCTC | -0.106
71 | CAGCCCTG | -0.345
72 | CTGGATTC | -0.0754
73 | ATACATGG | 0.0848
74 | CAATCCCA | -0.138
75 | CGCTTGAA | 0.129
76 | AAACAATC | 0.127
77 | ACGTGAGG | 0.086
78 | ATTAATGA | 0.236
79 | ATCAGAGG | -0.132
80 | CAGAGAAA | 0.278
81 | ATCGTGTC | 0.0422
82 | AATTTACG | 0.239
83 | ACCAGTCG | -0.204
84 | AAGTCGGC | -0.0562
85 | GAGATGCA | -0.0643
86 | ATGCTGGG | -0.209
87 | GCTCACAC | -0.0287
88 | GGTACGAA | 0.185

Row | Sequence | PBM E-score
89 | AGGCGAAT | -0.0473
90 | CGGTGTTC | 0.0352
91 | AGGAGGAG | -0.244
92 | CTTTGATA | 0.189
93 | CAAAGCAG | 0.0488
94 | CAAGATTA | 0.0683
95 | CTTGTCTC | -0.185
96 | CCATGCTC | -0.233
97 | CTCTGTGC | -0.0788
98 | CAAAAGAA | 0.232
99 | AAAGCCCC | -0.304
100 | AAGGAGCC | -0.201
101 | AAACTTTC | 0.0671
102 | AGGGGCGC | -0.189
103 | ATCTTTAA | 0.145
104 | ACTTATAT | 0.29
105 | ACAGGCGT | -0.237
106 | ACGGTTTA | 0.0171
107 | ACTTATCT | 0.126
108 | AGAGGCCG | -0.25
109 | ATATAAAA | 0.249
